The other results are listed elsewhere or left out. The main result of the screen is listed elsewhere. These columns were measured beside it and carry no call. Most of these compounds were active or inconclusive in the main read-out, so they are no random draw. The note in brackets gives the kind of curve behind each potency; many fits are weak.
Experiment: IkB Signaling
Conditions: ABC-DLBCL IkBa-CBG/CBR dual luciferase ratio (green luciferase fused to IkBa over red control in OCI-Ly3 lymphoma cells), 4 h
How it was run: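 Luminescence ratio of IκBα-fused green versus native red beetle luciferase in OCI-Ly3 cells, 4 h post-doxycycline with compound; red signal alone, scaled from basal (0%) to zero light (-100%), flagged nonspecific or cytotoxic effects.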

[1] = measured here: control luc red channel unless noted

Which AC50 [1] does the source give for `CC1CCc2c(sc3nnn(CC(=O)Nc4ccc(Cl)cc4)c(=O)c23)C1` (configuration not stated) here?
Its AC50 is 10 µM [falling, partial curve].

Which AC50 [1] does the source give for `Cc1ccc(N2CCN(S(=O)(=O)c3ccc4[nH]c5c(c4c3)CCCCC5)CC2)c(C)c1` here?
Its AC50 is 7.94 µM [falling, full curve].

Which AC50 [1] does the source give for `CCN(C(=O)c1cn(CC)c(=O)c2cc(OC)c(OC)cc12)c1ccc(C)c(C)c1` here?
The AC50 was 2.51 µM [falling, full curve, poor fit].

Which AC50 (measured here: IkB-luc green channel) does the source give for `O=C(CSc1ncccc1-c1nc2ccccc2[nH]1)NCc1ccco1` here?
Its AC50 is 25.1 µM [rising, partial curve].

What about the AC50 (measured here: control luc red channel) of the same compound?
The AC50 was 0.1 µM [falling, full curve].

Which AC50 [1] does the source give for `Cc1ccc(-n2nc(C)c3cc(C(=O)O)sc32)cc1` here?
Its AC50 is 12.6 µM [falling, partial curve].

Which AC50 [1] does the source give for `CCOc1ccc(CNS(=O)(=O)c2ccc(-c3coc(C)n3)cc2)cc1OC` here?
The AC50 was 0.316 µM [rising, full curve].

With `COc1ccc(CCN2C(=O)c3[nH]nc(-c4ccccc4O)c3C2c2ccccc2)cc1OC` (configuration not stated) as the compound, how does the AC50 [1] read?
Its AC50 is 12.6 µM [falling, partial curve].

Which AC50 [1] does the source give for `COc1ccccc1CNC(=O)c1cc2c(s1)-c1ccccc1OC2` here?
Its AC50 is 0.126 µM [falling, full curve].

For `CCC(=O)N1c2ccc(S(=O)(=O)CCC(=O)Nc3ccc(Br)c(C)c3)cc2CC1C` (configuration not stated), which AC50 [1] is on record?
Its AC50 is 3.98 µM [falling, partial curve].

For `CCOCCCN(Cc1ccco1)C(=O)c1cc2c(=O)[nH]c3ccc(C)cc3c2s1`, which AC50 [1] is on record?
Its AC50 is 31.6 µM [falling, single point].

Which AC50 [1] does the source give for `COc1ccc(/C=C(\C#N)c2nc3ccccc3n2C)c(OC)c1` here?
The AC50 was 20 µM [falling, single point].

With `COc1cccc(NC(=O)c2cnc(SCC(=O)N3CCOCC3)n(C)c2=O)c1` as the compound, how does the AC50 [1] read?
Its AC50 is 25.1 µM [rising, partial curve] [measured here: IkB-luc green channel].

For `Cc1ccc(Cl)cc1N1CCN(C(=O)CN2C(=O)CSc3c2c(C)nn3-c2ccccc2)CC1`, which AC50 [1] is on record?
The AC50 was 25.1 µM [falling, partial curve].

Which AC50 [1] does the source give for `COc1ccc2c(c1)CCc1c(C(=O)N3CCCC3)noc1-2` here?
The AC50 was 12.6 µM [falling, partial curve, poor fit].

For `CCOc1ccc(N(CC)S(=O)(=O)N2CCCC(C(=O)NCCc3ccc(OC)cc3)C2)cc1` (configuration not stated), which AC50 [1] is on record?
The AC50 was 20 µM [falling, single point].

With `Cc1ccc(C)c(N2CCN(C(=O)c3cc(S(=O)(=O)N4CCCCCC4)cn3C)CC2)c1` as the compound, how does the AC50 [1] read?
The AC50 was 25.1 µM [falling, partial curve].

For `COc1ccc(C2N(c3cc(Cl)ccc3OC)C(=O)C3CCCN32)cc1` (configuration not stated), which AC50 [1] is on record?
The AC50 was 15.8 µM [falling, partial curve].

For `COc1ccc(NC(=O)c2cc3ccccc3o2)cc1`, which AC50 [1] is on record?
Its AC50 is 15.8 µM [falling, partial curve].

Which AC50 [1] does the source give for `O=C(/C=C\c1ccccc1)NC1CC(=O)N(c2ccccc2)C1` (configuration not stated) here?
The AC50 was 3.16 µM [rising, single point].

With `Cc1cc(C)c2c(n1)sc1c(=O)n(-c3cc(Cl)ccc3C)nnc12` as the compound, how does the AC50 [1] read?
The AC50 was 20 µM [falling, partial curve, poor fit].

Which AC50 [1] does the source give for `CCC1CCCCN1C(=O)Cn1c(=O)cc(C(F)(F)F)c2c(C)nn(C)c21` (configuration not stated) here?
Its AC50 is 7.94 µM [falling, single point].

Which AC50 [1] does the source give for `Cc1ccc2cc(CN(Cc3ccc4c(c3)OCO4)Cc3nnnn3Cc3ccco3)c(=O)[nH]c2c1C` here?
The AC50 was 25.1 µM [falling, partial curve].

For `O=C1c2[nH]nc(-c3ccccc3O)c2C(c2ccc(F)cc2)N1CCO` (configuration not stated), which AC50 [1] is on record?
Its AC50 is 39.8 µM [falling, single point].

Which AC50 [1] does the source give for `COc1ccc(OC)c(NC(=O)Cc2c(C(=O)O)n(C)c3ccc(C)cc23)c1` here?
The AC50 was 31.6 µM [falling, partial curve].

With `COc1ccc2nc(-c3ccccc3)[nH]c2c1` as the compound, how does the AC50 [1] read?
Its AC50 is 12.6 µM [falling, partial curve].

For `CCOC(=O)c1cc(-c2ccc(OC)cc2)n(CCC(=O)Nc2nc3ccc(OCC)cc3s2)c1C`, which AC50 [1] is on record?
The AC50 was 3.16 µM [rising, single point].

Which AC50 [1] does the source give for `COc1ccc(-c2nc(SCC(=O)N3CCCCC3C)n[nH]2)cc1` (configuration not stated) here?
The AC50 was 0.0794 µM [falling, full curve].

For `CCc1cccc(C)c1Nc1c(-c2cccc(O)c2)nc2nc(C)cc(C)n12`, which AC50 [1] is on record?
Its AC50 is 31.6 µM [falling, partial curve].

For `CCc1ccc(-n2c(=O)c3c(C)c(C(=O)N(C)C)sc3n(Cc3ccccc3C#N)c2=O)cc1`, which AC50 [1] is on record?
Its AC50 is 3.98 µM [rising, partial curve].

Which AC50 [1] does the source give for `O=C(NCCCc1nc2ccccc2n1Cc1ccc(Cl)cc1Cl)c1ccco1` here?
Its AC50 is 39.8 µM [falling, single point].

For `COc1ccc(N2C(=O)CC(Sc3ncn[nH]3)C2=O)c(OC)c1` (configuration not stated), which AC50 [1] is on record?
The AC50 was 7.94 µM [falling, partial curve].

From PubChem BioAssay AID445 (National Center for Advancing Translational Sciences (NCATS), 2006)
